Measured data: PubChem BioAssay AID504764 (Drosophila RNAi Screening Center, 2011)
The deposit covers about 22,000 reagents; shown is an unselected part of those that have a named target and a result. Of all reagents, 403 (1.9%) are marked active. 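Unnormalised raw counts per well; ratio z-scores behind the hit calls and whether each hit raises or lowers signal are not deposited.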 A number with no mark means an inactive call. Reagents against one gene are numbered here. A plus sign joins genes that one reagent is predicted to hit. Not stated in the record: the amount of reagent.

Purpose: 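Knock-downs that raise or lower a Notch target reporter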 (primary screen)
Cells: Drosophila Kc167 cells
Reagent: long dsRNA against Drosophila genes
Timing: about 5 days (4 days dsRNA, then 24 h after transfection)
Challenge: transfection of constitutively active membrane-tethered Notch lacking the extracellular domain, read 24 h later
Read-out: 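Light from a Notch-responsive E(spl)m3 luciferase reporter under active Notch, with control-promoter and no-Notch reporter wells to normalise; raw counts from paired wells a and b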
Scale: induced reporter light, run 1, well a and induced reporter light, run 1, well b: higher = more light from the Notch target reporter with active Notch; control promoter light, run 1, well a and control promoter light, run 1, well b: higher = more light from the viral control promoter (cell number, transfection, viability); uninduced reporter light, run 1, well a: higher = more light from the Notch target reporter without active Notch
Rule for the call: 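Hit if the duplicate-averaged log2 ratio of induced to control-promoter light gives a plate-wise z beyond ±2, or induced to uninduced beyond ±1.8; weak-control or discordant-duplicate wells dropped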
Meaning of the calls: active = modifier hit (raised or lowered Notch signal); inactive = not a hit

| gene knocked down | dsRNA no. | induced reporter light, run 1, well a | induced reporter light, run 1, well b | control promoter light, run 1, well a | control promoter light, run 1, well b | uninduced reporter light, run 1, well a |
| --- | --- | --- | --- | --- | --- | --- |
| vis + achi | 1 | 76295 | 81405 | 66470 | 70410 | 6325 |
| TM9SF3 | 1 | 2.72e5 | 2.91e5 | 3.61e5 | 2.09e5 | 9870 |
| CG11854 | 1 | 1.44e5 | 1.32e5 | 1.70e5 | 1.84e5 | 11882 |
| CG18418 | 1 | 1.18e5 | 1.12e5 | 69855 | 41915 | 9230 |
| CG41099 | 1 | 96235 | 89105 | 89880 | 1.41e5 | 9425 |
| CG41099 | 2 | 86800 | 1.06e5 | 89855 | 1.06e5 | 9525 |
| Spn31A | 1 | 1.14e5 | 1.21e5 | 72030 | 87200 | 15770 |
| Rcd1 | 1 | 1.05e5 | 1.07e5 | 1.38e5 | 1.24e5 | 12935 |
| Ythdc1 | 1 | 1.23e5 | 1.13e5 | 94535 | 29800 | 11195 |
| lark | 1 | 82220 | 72030 | 51225 | 31625 | 6120 |
| CG12836 | 1 | 2.24e5 | 1.84e5 | 2.53e5 | 2.44e5 | 18910 |
| Saf-B | 1 | 1.40e5 | 1.46e5 | 1.44e5 | 1.49e5 | 15120 |
| ome | 1 | 1.45e5 | 1.50e5 | 2.27e5 | 2.49e5 | 15870 |
| ome | 2 | 1.36e5 | 1.82e5 | 2.32e5 | 2.53e5 | 7520 |
| ome | 3 | 1.55e5 | 1.13e5 | 1.68e5 | 1.83e5 | 7195 |
| CG11437 | 1 | 95155 | 98620 | 1.65e5 | 1.25e5 | 11270 |
| CG3119 | 1 | 1.13e5 | 1.30e5 | 1.31e5 | 97280 | 11480 |
| CG13390 | 1 | 1.57e5 | 1.88e5 | 1.03e5 | 1.30e5 | 23915 |
| Cyp4ac1 | 1 | 2.14e5 | 2.13e5 | 2.08e5 | 1.80e5 | 17570 |
| CG1902 | 1 | 1.39e5 | 1.82e5 | 1.71e5 | 1.39e5 | 14305 |
